Results are given in words; binding and its absence hold for the method and conditions named. In cells and extracts the contact can be indirect. Some binding calls cover weakened binding; strength is not graded here. Where a sequence is shown, tags or fusion partners need not be part of it.
Legend:
[1] = target: T1, Puf2 (TAP-tagged version) (S. cerevisiae (TAP-tagged yeast strain)) (UniProt Q12221); experiment: pull-down
T1 sequence: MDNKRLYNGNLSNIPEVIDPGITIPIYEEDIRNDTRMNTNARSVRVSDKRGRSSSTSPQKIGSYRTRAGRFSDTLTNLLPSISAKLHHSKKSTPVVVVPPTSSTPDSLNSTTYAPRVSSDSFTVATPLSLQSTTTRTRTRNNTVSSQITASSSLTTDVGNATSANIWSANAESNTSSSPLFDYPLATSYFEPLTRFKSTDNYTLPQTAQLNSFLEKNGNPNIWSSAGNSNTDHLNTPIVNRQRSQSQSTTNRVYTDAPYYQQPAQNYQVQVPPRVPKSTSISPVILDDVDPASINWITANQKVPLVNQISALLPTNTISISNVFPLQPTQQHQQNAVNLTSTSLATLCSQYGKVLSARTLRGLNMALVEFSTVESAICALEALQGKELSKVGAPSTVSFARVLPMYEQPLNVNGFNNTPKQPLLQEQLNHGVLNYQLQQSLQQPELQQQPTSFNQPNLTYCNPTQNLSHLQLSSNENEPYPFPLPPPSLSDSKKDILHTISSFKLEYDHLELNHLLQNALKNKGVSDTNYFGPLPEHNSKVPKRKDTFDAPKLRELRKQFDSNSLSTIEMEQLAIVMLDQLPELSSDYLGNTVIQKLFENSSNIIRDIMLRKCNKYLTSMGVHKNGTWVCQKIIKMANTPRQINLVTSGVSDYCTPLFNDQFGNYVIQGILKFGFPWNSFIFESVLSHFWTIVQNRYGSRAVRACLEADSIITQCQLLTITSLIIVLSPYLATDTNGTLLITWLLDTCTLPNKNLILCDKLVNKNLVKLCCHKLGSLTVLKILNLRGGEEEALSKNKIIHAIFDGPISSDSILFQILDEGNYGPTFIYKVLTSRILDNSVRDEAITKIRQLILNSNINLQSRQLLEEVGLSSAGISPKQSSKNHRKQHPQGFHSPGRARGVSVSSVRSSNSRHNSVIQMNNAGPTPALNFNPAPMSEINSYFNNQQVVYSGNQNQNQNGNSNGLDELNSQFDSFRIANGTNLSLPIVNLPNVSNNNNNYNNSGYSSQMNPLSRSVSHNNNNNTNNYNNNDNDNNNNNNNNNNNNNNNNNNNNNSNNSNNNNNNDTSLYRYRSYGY

[2] = target: T2, Puf5 (TAP-tagged version) (S. cerevisiae (TAP-tagged yeast strain)) (UniProt P39016); experiment: pull-down
T2 sequence: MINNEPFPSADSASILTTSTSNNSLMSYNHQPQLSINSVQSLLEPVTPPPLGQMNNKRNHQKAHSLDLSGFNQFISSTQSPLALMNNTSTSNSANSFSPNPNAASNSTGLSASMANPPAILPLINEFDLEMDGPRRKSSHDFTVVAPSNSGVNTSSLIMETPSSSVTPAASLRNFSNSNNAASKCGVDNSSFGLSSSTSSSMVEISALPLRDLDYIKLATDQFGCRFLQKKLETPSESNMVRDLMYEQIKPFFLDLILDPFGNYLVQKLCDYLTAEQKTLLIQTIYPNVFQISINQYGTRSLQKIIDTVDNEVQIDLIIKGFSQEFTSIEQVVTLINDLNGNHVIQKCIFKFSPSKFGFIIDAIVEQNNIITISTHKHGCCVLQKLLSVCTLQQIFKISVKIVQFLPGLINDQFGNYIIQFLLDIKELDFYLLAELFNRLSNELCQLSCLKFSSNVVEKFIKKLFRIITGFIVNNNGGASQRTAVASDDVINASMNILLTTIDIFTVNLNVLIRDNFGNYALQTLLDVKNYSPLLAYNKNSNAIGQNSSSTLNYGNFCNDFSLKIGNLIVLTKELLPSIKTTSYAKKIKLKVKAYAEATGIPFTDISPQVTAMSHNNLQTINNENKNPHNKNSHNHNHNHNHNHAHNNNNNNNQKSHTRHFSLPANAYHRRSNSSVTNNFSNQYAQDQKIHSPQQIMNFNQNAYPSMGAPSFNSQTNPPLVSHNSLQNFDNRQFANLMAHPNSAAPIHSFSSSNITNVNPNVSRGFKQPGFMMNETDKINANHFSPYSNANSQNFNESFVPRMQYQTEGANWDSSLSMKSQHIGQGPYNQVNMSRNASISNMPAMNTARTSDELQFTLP

B1: Rpb4 (protein, UniProt P20433 1-221)
chain: MNVSTSTFQTRRRRLKKVEEEENAATLQLGQEFQLKQINHQGEEEELIALNLSEARLVIKEALVERRRAFKRSQKKHKKKHLKHENANDETTAVEDEDDDLDEDDVNADDDDFMHSETREKELESIDVLLEQTTGGNNKDLKNTMQYLTNFSRFRDQETVGAVIQLLKSTGLHPFEVAQLGSLACDTADEAKTLIPSLNNKISDDELERILKELSNLETLY
- binding [1]: binds weakly
- binding [2]: no binding
